PubChem BioAssay AID743121 – NCATS, 2013
Screen: 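Knock-downs that sensitise breast cancer cells to camptothecin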 (primary screen). Cells: MDA-MB-231 cells, a human breast cancer line. Reagent: single siRNA against human genes, 20 nM siRNA (0.8 pmol per well). Duration: 120 h (drug added 48 h after transfection, read 72 h later). Treatment: camptothecin 20 nM (about EC30) for 72 h; vehicle 0.1% DMSO in parallel plates. Measurement: 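CellTiter-Glo ATP signal, scaled to control siRNA as percent viability; sensitisation given as log2 of untreated divided by camptothecin-treated viability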. Scale: log2 vehicle/camptothecin viability: higher = stronger sensitisation to camptothecin; viability with camptothecin and viability without drug: higher = more viable cells. Active means: 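Active genes have an RSA gene-level p-value below 0.001, computed from the ratios of their separate siRNAs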.
In all, the deposit lists about 26,000 reagents; below is an unselected part. Of all reagents, 167 (0.63%) were called active. 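Calls are per gene from RSA p-values that are not deposited; an individual active-marked siRNA can sensitise only weakly.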 The numbers tell different reagents against one gene apart. No sequences are given here.

The first 4 entries, to show the layout:
target gene | reagent no. | log2 vehicle/camptothecin viability | viability with camptothecin (% of control) | viability without drug (% of control) | outcome
PLAAT1 (GeneID 57110) | 1 | -0.347 | 81.6 | 64.2 | inactive
PLAAT1 (GeneID 57110) | 2 | -0.485 | 112 | 80.3 | inactive
PLAAT1 (GeneID 57110) | 3 | -0.244 | 103 | 86.8 | inactive
PLAAT1 (GeneID 57110) | 4 | -0.653 | 108 | 68.9 | inactive

The list itself, repeating the preview:
target gene | reagent no. | log2 vehicle/camptothecin viability | viability with camptothecin (% of control) | viability without drug (% of control) | outcome
PLAAT1 (GeneID 57110) | 1 | -0.347 | 81.6 | 64.2 | inactive
PLAAT1 (GeneID 57110) | 2 | -0.485 | 112 | 80.3 | inactive
PLAAT1 (GeneID 57110) | 3 | -0.244 | 103 | 86.8 | inactive
PLAAT1 (GeneID 57110) | 4 | -0.653 | 108 | 68.9 | inactive
HDAC7 (GeneID 51564) | 1 | -0.26 | 23.7 | 19.8 | inactive
HDAC7 (GeneID 51564) | 2 | -0.114 | 35.7 | 33 | inactive
HDAC7 (GeneID 51564) | 3 | -0.117 | 66.4 | 61.2 | inactive
CCNE1 (GeneID 898) | 1 | -0.0403 | 89.1 | 86.7 | inactive
CCNE1 (GeneID 898) | 2 | -0.26 | 96.9 | 80.9 | inactive
CCNE1 (GeneID 898) | 3 | 0.137 | 86.5 | 95.2 | inactive
RXFP4 (GeneID 339403) | 1 | -0.468 | 89.2 | 64.5 | inactive
RXFP4 (GeneID 339403) | 2 | -0.217 | 82.3 | 70.8 | inactive
RXFP4 (GeneID 339403) | 3 | -0.0122 | 32.1 | 31.8 | inactive
PPP3CA (GeneID 5530) | 1 | -0.174 | 113 | 100 | inactive
PPP3CA (GeneID 5530) | 2 | -0.569 | 81.9 | 55.2 | inactive
PPP3CA (GeneID 5530) | 3 | -0.305 | 73.4 | 59.4 | inactive
PPP3CA (GeneID 5530) | 4 | -0.216 | 67.9 | 58.4 | inactive
GNB3 (GeneID 2784) | 1 | 0.425 | 10.8 | 14.5 | inactive
GNB3 (GeneID 2784) | 2 | -0.287 | 91 | 74.6 | inactive
GNB3 (GeneID 2784) | 3 | -0.634 | 95.3 | 61.4 | inactive
GNB3 (GeneID 2784) | 4 | -1.11 | 83.4 | 38.7 | inactive
LZTS1 (GeneID 11178) | 1 | -0.392 | 52.8 | 40.2 | inactive
LZTS1 (GeneID 11178) | 2 | -0.178 | 64.6 | 57.1 | inactive
LZTS1 (GeneID 11178) | 3 | -0.207 | 81.5 | 70.7 | inactive
LZTS1 (GeneID 11178) | 4 | -1.41 | 98.3 | 36.9 | inactive
CFL1 (GeneID 1072) | 1 | -0.137 | 82.4 | 75 | inactive
CFL1 (GeneID 1072) | 2 | -0.0442 | 94.8 | 92 | inactive
CFL1 (GeneID 1072) | 3 | -0.337 | 49.3 | 39 | inactive
THBS1 (GeneID 7057) | 1 | -0.184 | 51.6 | 45.4 | inactive
THBS1 (GeneID 7057) | 2 | -0.51 | 60.2 | 42.3 | inactive
THBS1 (GeneID 7057) | 3 | -0.0913 | 45.2 | 42.4 | inactive
THBS1 (GeneID 7057) | 4 | -0.0535 | 93.4 | 90 | inactive
HMMR (GeneID 3161) | 1 | -0.153 | 115 | 103 | inactive
HMMR (GeneID 3161) | 2 | -0.524 | 84.6 | 58.8 | inactive
HMMR (GeneID 3161) | 3 | -0.135 | 99.7 | 90.8 | inactive
HMMR (GeneID 3161) | 4 | -0.378 | 85.2 | 65.5 | inactive
GABRR3 (GeneID 200959) | 1 | -0.39 | 64.1 | 48.9 | inactive
GABRR3 (GeneID 200959) | 2 | -0.37 | 75.5 | 58.5 | inactive
GABRR3 (GeneID 200959) | 3 | -0.432 | 74.7 | 55.4 | inactive
GABRR3 (GeneID 200959) | 4 | -0.0863 | 84.5 | 79.6 | inactive
TLR10 (GeneID 81793) | 1 | 0.226 | 36.7 | 42.9 | inactive
TLR10 (GeneID 81793) | 2 | -0.0969 | 92.5 | 86.5 | inactive
TLR10 (GeneID 81793) | 3 | -0.182 | 116 | 103 | inactive
TLR10 (GeneID 81793) | 4 | 0.0647 | 90.6 | 94.8 | inactive
TDP1 (GeneID 55775) | 1 | 1.7 | 6.64 | 21.5 | inactive
TDP1 (GeneID 55775) | 2 | -0.0966 | 123 | 115 | inactive
TDP1 (GeneID 55775) | 3 | -0.0602 | 43.4 | 41.6 | inactive
TDP1 (GeneID 55775) | 4 | -0.0916 | 78.1 | 73.3 | inactive
SELP (GeneID 6403) | 1 | -0.089 | 96.8 | 91 | inactive
SELP (GeneID 6403) | 2 | -0.186 | 57.1 | 50.2 | inactive
SELP (GeneID 6403) | 3 | -0.509 | 88.2 | 61.9 | inactive
SELP (GeneID 6403) | 4 | -0.0285 | 48.2 | 47.2 | inactive
PPM1D (GeneID 8493) | 1 | -0.292 | 56.6 | 46.2 | inactive
PPM1D (GeneID 8493) | 2 | -0.117 | 70.3 | 64.8 | inactive
PPM1D (GeneID 8493) | 3 | -0.424 | 86.4 | 64.4 | inactive
PPM1D (GeneID 8493) | 4 | -0.0933 | 80.4 | 75.3 | inactive
AKAP17A (GeneID 8227) | 1 | 0.36 | 47.1 | 60.5 | inactive
AKAP17A (GeneID 8227) | 2 | 0.0245 | 99.8 | 101 | inactive
AKAP17A (GeneID 8227) | 3 | -0.311 | 97.7 | 78.8 | inactive
CYBA (GeneID 1535) | 1 | -0.368 | 41.3 | 32 | inactive
CYBA (GeneID 1535) | 2 | -0.395 | 73.4 | 55.8 | inactive
CYBA (GeneID 1535) | 3 | -0.354 | 65 | 50.9 | inactive
CYBA (GeneID 1535) | 4 | -0.434 | 87.6 | 64.8 | inactive
GAPDHS (GeneID 26330) | 1 | 0.0687 | 87.3 | 91.6 | inactive
GAPDHS (GeneID 26330) | 2 | 0.126 | 52.6 | 57.5 | inactive
GAPDHS (GeneID 26330) | 3 | 0.765 | 32.7 | 55.6 | inactive
GAPDHS (GeneID 26330) | 4 | -0.00757 | 69.9 | 69.5 | inactive
PFKP (GeneID 5214) | 1 | -0.392 | 114 | 86.8 | inactive
PFKP (GeneID 5214) | 2 | 0.828 | 54 | 95.8 | inactive
PFKP (GeneID 5214) | 3 | -0.283 | 59.2 | 48.7 | inactive
PFKP (GeneID 5214) | 4 | -0.323 | 44.1 | 35.2 | inactive
